These are yes or no findings as the source states them, for the method shown. In cells and extracts the contact can be indirect. Some binding calls cover weakened binding; strength is not graded here. Sequences can lack the tags named with a protein.
T1: Pals1-APEX2-EGFP (UniProt Q8N3R9)
T1 sequence: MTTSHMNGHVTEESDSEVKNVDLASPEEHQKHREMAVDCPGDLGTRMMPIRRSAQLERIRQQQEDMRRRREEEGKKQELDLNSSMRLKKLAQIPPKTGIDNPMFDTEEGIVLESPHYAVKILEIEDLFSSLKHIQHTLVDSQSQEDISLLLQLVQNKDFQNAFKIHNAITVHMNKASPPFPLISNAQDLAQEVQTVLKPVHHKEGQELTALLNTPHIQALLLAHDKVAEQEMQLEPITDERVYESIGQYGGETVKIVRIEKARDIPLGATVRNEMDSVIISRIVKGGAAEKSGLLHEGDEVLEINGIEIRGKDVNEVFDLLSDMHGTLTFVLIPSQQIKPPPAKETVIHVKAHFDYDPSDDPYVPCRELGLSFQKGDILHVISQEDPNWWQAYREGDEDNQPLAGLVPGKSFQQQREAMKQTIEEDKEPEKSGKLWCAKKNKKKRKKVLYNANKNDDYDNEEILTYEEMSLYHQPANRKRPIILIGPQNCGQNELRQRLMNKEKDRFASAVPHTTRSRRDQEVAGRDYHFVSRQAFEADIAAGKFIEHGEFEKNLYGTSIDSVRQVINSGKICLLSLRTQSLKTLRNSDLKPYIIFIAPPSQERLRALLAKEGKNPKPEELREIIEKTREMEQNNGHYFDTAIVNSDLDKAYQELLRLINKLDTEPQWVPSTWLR

Sequences of proteins named here, by UniProt entry; tags and fusion partners are left off.
UniProt E2QYC9: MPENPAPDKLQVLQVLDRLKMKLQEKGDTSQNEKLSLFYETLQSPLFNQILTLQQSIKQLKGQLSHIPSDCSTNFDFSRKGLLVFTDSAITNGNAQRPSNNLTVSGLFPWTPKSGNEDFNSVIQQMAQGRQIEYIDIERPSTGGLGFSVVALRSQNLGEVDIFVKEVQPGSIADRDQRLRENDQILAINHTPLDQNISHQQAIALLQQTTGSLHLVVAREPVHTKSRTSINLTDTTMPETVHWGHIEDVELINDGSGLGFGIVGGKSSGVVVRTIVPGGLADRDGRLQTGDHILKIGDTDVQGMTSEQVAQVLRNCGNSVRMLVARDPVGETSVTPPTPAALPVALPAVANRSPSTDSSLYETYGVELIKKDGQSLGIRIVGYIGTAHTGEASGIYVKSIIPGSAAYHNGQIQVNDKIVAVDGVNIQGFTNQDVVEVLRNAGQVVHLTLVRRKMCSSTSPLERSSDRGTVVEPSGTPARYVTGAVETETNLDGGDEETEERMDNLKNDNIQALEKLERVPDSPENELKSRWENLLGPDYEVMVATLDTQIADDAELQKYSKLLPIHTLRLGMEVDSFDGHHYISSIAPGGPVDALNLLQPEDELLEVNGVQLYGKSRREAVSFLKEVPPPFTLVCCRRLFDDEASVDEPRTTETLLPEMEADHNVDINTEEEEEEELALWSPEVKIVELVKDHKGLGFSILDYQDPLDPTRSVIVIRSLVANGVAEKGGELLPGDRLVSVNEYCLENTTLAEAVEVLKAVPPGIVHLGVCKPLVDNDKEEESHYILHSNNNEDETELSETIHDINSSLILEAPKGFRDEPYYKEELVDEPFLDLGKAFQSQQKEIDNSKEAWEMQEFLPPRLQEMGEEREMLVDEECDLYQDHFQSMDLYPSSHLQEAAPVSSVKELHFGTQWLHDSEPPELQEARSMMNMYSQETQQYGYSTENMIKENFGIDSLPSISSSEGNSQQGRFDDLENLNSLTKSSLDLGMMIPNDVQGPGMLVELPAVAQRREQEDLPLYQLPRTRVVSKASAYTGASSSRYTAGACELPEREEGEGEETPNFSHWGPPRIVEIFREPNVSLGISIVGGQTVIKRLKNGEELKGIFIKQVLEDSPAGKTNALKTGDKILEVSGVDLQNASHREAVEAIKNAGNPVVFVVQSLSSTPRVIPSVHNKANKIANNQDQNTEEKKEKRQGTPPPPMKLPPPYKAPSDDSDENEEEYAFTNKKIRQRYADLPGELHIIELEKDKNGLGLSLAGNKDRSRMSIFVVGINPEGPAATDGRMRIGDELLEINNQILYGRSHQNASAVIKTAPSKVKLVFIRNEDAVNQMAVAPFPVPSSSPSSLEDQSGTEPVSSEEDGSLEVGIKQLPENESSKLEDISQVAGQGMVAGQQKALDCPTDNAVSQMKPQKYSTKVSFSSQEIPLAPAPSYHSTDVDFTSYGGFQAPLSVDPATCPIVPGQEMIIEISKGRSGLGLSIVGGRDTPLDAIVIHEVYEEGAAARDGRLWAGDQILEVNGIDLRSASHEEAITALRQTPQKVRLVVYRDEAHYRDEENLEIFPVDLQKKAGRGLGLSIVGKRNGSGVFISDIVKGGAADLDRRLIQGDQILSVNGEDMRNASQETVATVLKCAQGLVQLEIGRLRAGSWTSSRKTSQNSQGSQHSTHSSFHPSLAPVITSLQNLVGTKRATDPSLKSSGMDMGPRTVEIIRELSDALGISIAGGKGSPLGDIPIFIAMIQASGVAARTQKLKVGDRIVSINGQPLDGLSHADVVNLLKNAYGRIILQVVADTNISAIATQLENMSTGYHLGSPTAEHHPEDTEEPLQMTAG
UniProt A0A8I3PSX6: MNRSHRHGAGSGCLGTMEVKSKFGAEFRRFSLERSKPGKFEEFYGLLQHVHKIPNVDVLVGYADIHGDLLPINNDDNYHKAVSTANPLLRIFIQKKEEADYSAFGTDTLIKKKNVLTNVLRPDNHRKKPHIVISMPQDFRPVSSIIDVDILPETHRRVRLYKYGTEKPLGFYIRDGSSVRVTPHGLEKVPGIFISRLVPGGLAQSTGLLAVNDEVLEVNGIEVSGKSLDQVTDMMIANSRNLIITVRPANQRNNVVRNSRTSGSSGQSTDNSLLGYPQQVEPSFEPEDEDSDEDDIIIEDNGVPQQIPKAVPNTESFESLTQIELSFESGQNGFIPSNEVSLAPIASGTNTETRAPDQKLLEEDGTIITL


target: T1, Pals1-APEX2-EGFP; assay: co-IP

Molecule	binding
Pals1-associated tight junction protein (from UniProt E2QYC9 1-1828)	binds
Crumbs3 (protein, UniProt A0A5F4BST2 27-123) QTLDPHVNENGTITPSAPGSGSNGALSQEAITAIIVVFSLLAAVLLAVGLVLLLRKLREKRQTQGTYRPSSEEQFNHAAEARAPQDSKETVRGCLPI	binds
Occludin (protein, UniProt Q28269 1-521) MSSRPFESPPPYRPDEFKPNHYAPSNDVYGGDMHVRPMLSQPAYSFYPEDEILHFYKWTSPPGVIRILSMLVIVMCIAIFGCVASTLAWDRGYGTGLMGGSIGYPYGSGFGSYGTGYGYGFGYGYGYGGYTDPRAAKGFLLAMVAFCFIAALVIFVTSVIRSDISRTRRYYLTVIILSAFLGVMMFIATIVYIMGVNPTAQASGSLYSSQIYAMCNQFYASTATGLYMDQYLYHYCVVDPQEAIAIVLGFMVIVAFALIIFFAVKTRRKMDRYDKSNILWDKEHIYDEQPPNVEEWVKNVSAGTQDMPPPPSDYVERVDSPMAYSSNGKVNDKRLYPESSYKSTPVPEVVQELPATSPADDFRQPRYSSSGHLEPPSKRAPSKGRTGRPKRLEQDHYETDYTTGGESCDELEEDWIREYPPITSDQQRQLYKRNFDTGLQEYKSLQAELDEINKELSRLDKELDDYREESEEYMAAADEYNRLKQVKGSPDYKNKRNYCKQLKSKLSHIKKMVGDYDRQKT	no binding

Further lines, results first:

binding	Molecule
binds	Par6 (from UniProt A0A8I3PSX6 1-370)
no binding	ZO-2 (protein, UniProt Q95168 1-1174) MEELIWEQYTVTLQKDSKRGFGIAVSGGRDNPHFENGETSIVISDVLPGGPADGLLQENDRVVMVNGTPMEDVLHSFAVQQLRKSGKIAAIVVKRPRKVQLAPPQGSLPVDEDDRAFEVMDEFDGRSARSGYSERSRRSSHGGRSRSWEDSPERGRPHERAWSQERERSRGRSLERGLDHDDDYRRPRERSRGRSLERGLDHDDDYGRPGERSHGMSTDRGYDRGYDRGYDRGYDRTYSPEAEYGRRTQPDARHAGSRSRSREHLRSRSPSPELRGRPDHAGQPDSDRPIGVLLMKSKANEEYGLRLGSQIFIKQMTRTALATKDGNLHEGDIILKINGTVTENMSLTDARKLIEKSRGKLQLVVLRDSKQTLINIPSLNDSDSEIEDISEIESNRSFSPEERRQQYSDYDYHSSNEKLKERPNSREDMQNRWSRMGATPTPFKSMGDIASVVGTENSKEPRYQEEPPAPQPKAAPRTFLRPSPEDEAIYGPNTKMVRFKKGDSVGLRLAGGNDVGIFVAGIQEGTSAEQEGLQEGDQILKVNTQDFRGLVREDAVLYLLEIPKGEMVTILAQSRADVYRDILACGRGDSFFIRSHFECEKETPQSLAFSRGEVFRVVDTLYDGKLGHWLAVRIGNELEKGLIPNKSRAEQMASVQNAQRDNAGDRADFWRMRGQRSGMKKNLRKSREDLTAAVSVSTKFPAYERVLLREAGFKRPVVLFGPIADIALEKLANELPDLFQTAKTEPKDAGSEKSSGVVRLNTVRQIIEQDKHALLDVTPKAVDLLNYTQWFPIVIFFNPDSRQGVKTMRQRLNPTSNKSSRKLYDQANKLKKTCAHLFTATINLNSANDSWFGSLKDTIQHQQGEAVWVSEGKMEGMDDDPEDRMSYLTAMGADYLSCDSRLISDFEDTDGEGGAYTDNELDEPAEEPLVSSITRSSEPVQHEESIRKPSPEPRAQMRRAASRDQLRDSSPPPAFKPEPPKAKTQNREESFDISRSHDYKSNPSAVAGNEVSGASTRSCPPPIAAKPSFGRSILKPSTPVPSPESEEVGEGSEEQEGAPKSVLGKVKIFEKMDHKARLQRMQELQEAQNARIEIAQKHPDIYAVPIKTHKPDPGLSQHTSSRPPEPQKGPSRLYQDPRGSYGSDAEEEEYRQQLSEHSKRGYYSQPSRYRDTEL

From doi:10.1101/710202
